For part of these data: Plain letter strings leave the end groups untold.
Tests used:
[1] = general procedure: Fmoc solid-phase peptide synthesis; Fmoc-Gly-sulfamylbenzoyl-MBHA resin; 2-chlorotrityl chloride PS resin; HATU; DIC/HOBt; details: TFA salt
peptide synthesis = details: coupling step, TFA salt
[2] = general procedure: Fmoc solid-phase peptide synthesis; Fmoc-Gly-sulfamylbenzoyl-MBHA; HATU; DIC/HOBt; details: whole synthesis, scale 0.25 mmol, TFA salt
[3] = late stage modification step, HPLC, YMC C-18/C-4, UV 220 or 254 nm (area %)
[4] = whole synthesis, 220 nm, area %

Row | Substance | step yield ([1]; coupling step) | step yield ([1]; late stage modification step) | further results
1 | Fmoc-HN—CH2—CH2—O—CH2—CH2—O—CH2—CO-Thr(t-Bu)-Lys(Boc)-Arg(Pmc)-t-Bu | – | – | conjugation yield ([1]; conjugation step): 65%
2 | H2N-G-T(tBu)-k(Mtt)-Pro-Pro-R(Pmc)-OtBu | 84% | – | –
3 | Fmoc-Thr(t-Bu)-Lys(Boc)-Pro-Pro-Arg(Pmc)-t-Bu | 70% | – | –
4 | Thr(Obzl)-Lys(Z)-Pro-Pro-Arg(NO2)Obzl | yield 91% | 98% | crude HPLC purity [1, 3]: 98.3%
5 | di(aminodioxaoctanoyl)-Thr(OBzl)-Lys(Z)Pro-Pro-Arg(NO2)OBzl (4) | yield 79.5% | yield 91% | –
6 | Lys(Z)-Pro-Pro-Arg(NO2)Obzl | – | 95% | crude HPLC purity [1, 3]: 95.7%
7 | H-Thr(t-Bu)-Lys(Boc)-Pro-Pro-Arg(Pmc)-t-Bu | – | 34% | –
8 | Aminodioxaoctanoyl-Thr(OBnzl)-Lys(Z)Pro-Pro-Arg(NO2)Obzl (3) | yield 82% | yield 87% | –
9 | DPPE-Glutaroyl-Gly-Thr(Obzl)-Lys(Z)-Pro-Pro-Arg(NO2)Obzl | – | – | step yield ([1]; lipidation step): 73%; final HPLC purity ([1]; lipidation step, UV 254 nm): 100%
10 | TKPPR Tetramer Conjugated to oxa-PnAO Metal Chelating Group (BRU-363) | – | – | final HPLC purity ([1]; conjugation step, 220 nm): Purity>98%
11 | F-108-(OCH2COHNGTKPPR)2 | – | 77% | –
12 | DPPE-Glutaroyl-di(aminodioxaoctanoyl)-Thr-Lys-Pro-Pro-Arg-OH | – | Yield , 39.5% | step yield ([1]; lipidation step): yield 73%
13 | TKPPR-K(RPPKT)-K[K(RPPKT)TKPPR]-G-Z-OG | – | – | final HPLC purity [1, 4]: >98%; isolated yield ([1]; whole synthesis): 15%
14 | Fmoc-Lys(Boc)-Pro-Pro-Arg(Pmc)-t-Bu | – | – | step yield (peptide synthesis): 100%
15 | H2N-T (tBu)-K (Mtt)-Pro-Pro-Arg (Pmc)-OtBu | 90% | – | –
16 | Gly-Thr(Obzl)-Lys(Z)Pro-Pro-Arg(NO2)Obzl | yield 86% | 94.5% | crude HPLC purity [1, 3]: 100%
17 | Thr-Lys-Pro-Pro-Arg-Lys(Arg-Pro-Pro-Lys-Thr)-Gly-TTDA-OG | – | – | isolated yield [2]: 20%; final HPLC purity [1, 4]: >99%
18 | Cyclic disulfide CTKPPRC | – | – | final HPLC purity ([1]; oxidative folding step, 220 nm): >99% (area %); oxidative folding yield ([1]; oxidative folding step): 75% yield
19 | DPPE-Glutaroyl-Gly-Thr-Lys-Pro-Pro-Arg-OH (DPPE-GLU-GTKPPR) | – | 74% | final HPLC purity ([1]; late stage modification step, UV 220 nm): 100%
20 | N-glutaroyl-Gly-Thr(Obzl)-Lys(Z)-Pro-Pro-Arg(NO2)Obzl | – | 95.6% | crude HPLC purity ([1]; late stage modification step, UV 254 nm): 97.7%
21 | H-Lys(Boc)-Pro-Pro-Arg(Pmc)-t-Bu | – | 89% | –
22 | TKPPR-OH | – | 84% | –

— US20020147136A1 (priority 2000, published 2002)
